Data on one compound can be found in patent US4552878A, “Benzo- and thieno-triazine-1,2,3 ones-4” (Lipha, Lyonnaise Industrielle Pharmaceutique, priority 1982, dated 1985).

The assay deals with central effects of 5-hydroxytryptophan. Kind of assay: Potentiation of the central effects of 5-hydroxytryptophan (5-HTP). To be noted: Mus musculus, ip; Swiss mice, I.P., 30 minutes before 300 mg/kg 5-HTP I.P.; observed 30 min later for 1 min; read-out: Potentiation of the 5-HTP ED50 DE50. The format is in vivo. As to the method: This potentiation objectifying the axonal blocking of the reabsorption of the seratonin at the serotoninergic nerve ends was studied by the method described by T. M. Pugsley and […] 33, 57 (1977)]: […] The mice are observed 30 min later, for 1 min, during which the following sterotyped movements are classified: extension of the hind paws, trembling, excitement, head shaking.

As usually defined, the ED50 is the dose that gives a 50% effect, or the effect in half of the subjects. In the case of `Cl.O=c1n(CCCN2CCN(c3cccc(Cl)c3)CC2)nc2ccccn12` [Trazodone Hydrochloride, 2-[3-[4-(3-chlorophenyl)-1-piperazinyl]propyl]-1,2,4-triazolo[4,3-a]pyridin-3 (2H)-one hydrochloride, reference compound], the ED50 came to 20 mg/kg.
